Assay results published in PubChem BioAssay AID1671190 (National Center for Advancing Translational Sciences (NCATS), 2021).
Out of some 580,000 compounds screened, about 6,100 (1.1%) were called active. Inconclusive results, whose numbers are uncertain, are shown with a selection of clear calls. Calls come from the whole dose curve; as a rule, active = well fitted inhibition curve with a large enough effect; inconclusive = small, poorly fitted or top-dose-only effect, or another doubt; inactive = no such curve, though single readings can be large or run the other way. Where the call is inconclusive, the potency comes from a doubtful curve fit.

Protein sequences, listed by entry. Tags and fused reporters are not part of them. Lines headed by an entry give the natural chain unless they say otherwise; changes in a name come on top.
UniProt P18054: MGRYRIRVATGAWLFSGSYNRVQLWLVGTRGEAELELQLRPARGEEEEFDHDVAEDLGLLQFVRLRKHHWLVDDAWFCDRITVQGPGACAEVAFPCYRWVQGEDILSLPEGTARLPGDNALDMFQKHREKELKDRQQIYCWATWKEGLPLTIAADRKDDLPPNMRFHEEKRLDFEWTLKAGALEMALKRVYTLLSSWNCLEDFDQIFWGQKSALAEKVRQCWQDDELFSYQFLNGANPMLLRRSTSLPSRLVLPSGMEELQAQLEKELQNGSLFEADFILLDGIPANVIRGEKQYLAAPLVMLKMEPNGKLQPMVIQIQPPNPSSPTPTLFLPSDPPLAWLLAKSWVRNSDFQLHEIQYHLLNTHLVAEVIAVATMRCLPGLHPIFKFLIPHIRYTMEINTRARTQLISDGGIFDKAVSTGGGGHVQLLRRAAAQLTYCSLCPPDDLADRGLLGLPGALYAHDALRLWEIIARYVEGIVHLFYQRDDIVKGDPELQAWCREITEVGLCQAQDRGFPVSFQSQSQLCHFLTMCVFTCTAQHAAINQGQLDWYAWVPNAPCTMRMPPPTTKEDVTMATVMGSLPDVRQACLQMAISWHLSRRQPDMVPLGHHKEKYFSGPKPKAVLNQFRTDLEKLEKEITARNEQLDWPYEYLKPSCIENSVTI

Target: Polyunsaturated fatty acid lipoxygenase ALOX12 (Homo sapiens) (UniProt P18054)
Test: Primary qHTS assay for inhibitors of human arachidonate 12S-lipoxygenase (ALOX12): Round 2
Conditions: purified 12hLO, xylenol orange hydroperoxide absorbance; activity change, negative = inhibition: at 108 µM (top of the series) unless noted
How it was run: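 Purified human 12hLO at 150 nM in 25 mM Hepes, 0.01% Triton X-100, pH 7.0, preincubated 15 min at room temperature with compound. Reaction started with 40 uM arachidonic acid, 30 min at room temperature. Hydroperoxide measured by Fe-xylenol orange, 573/405 nm absorbance ratio.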
% is set by controls: 0 for no effect and ±100 for the full control effect; potency is the fitted concentration of half-maximal effect.

Structure (SMILES) | Potency | activity change, negative = inhibition
Cc1ccccc1C(=O)Nc1cccc(-c2nnc(SCC(=O)O)n2C)c1 | inconclusive: 56.2 µM [inhibitor, partial curve, poor fit] | 
O=c1[nH]c(C2CCN(S(=O)(=O)c3ccc(C(F)(F)F)cc3)CC2)nc2c1nnn2Cc1cccc(F)c1 | inactive | 
CC(C)CNS(=O)(=O)c1ccccc1C(=O)N1CCCCC1 | inconclusive: 50.1 µM [inhibitor, partial curve, poor fit] | 
O=C1CN(C(=O)COC(=O)c2ccccc2NCc2ccco2)c2ccccc2N1 | inactive | 
CC1(OC(=O)c2ccco2)C(=O)C=C2C=C(C3CC3)OC=C2C1=O (configuration not stated) | active: 44.7 µM | 
O=C(NCc1ccccc1)Nc1c(NC2CCCCC2)c2ccccc2oc1=O | inconclusive: 100 µM [inhibitor, single point] | 
CCCCCCCCn1cc(C(C)=O)c(=O)[nH]c1=O | inconclusive: 112 µM [inhibitor, partial curve, poor fit] | 
COc1ccc(CN2CCN(C/C=C/c3ccccc3)CC2)cc1OC | inactive | 
CC/C=C\CCOC(C)=O | inactive | 
Cc1ccc(-c2nnc(Nc3cccc(Cl)c3)c3ccccc23)cc1S(=O)(=O)N1CCN(C)CC1 | inactive | 
CCOc1ccc(N(CC(=O)NC2CCCC2)C(=O)CCC(=O)Nc2nccs2)cc1 | inactive | 
COc1ccc(C(NC(=O)C2CCN(CCCc3ccccc3)CC2)c2cccs2)cc1 (configuration not stated) | inconclusive: 63.1 µM [inhibitor, partial curve, poor fit] | 
Cc1cccc(C(=O)NC(=S)Nc2ccc(Cc3ccncc3)cc2)c1 | active: 44.7 µM | 
CC(SCC(=O)NC(C)(C#N)C1CC1)c1ccc(F)cc1 (configuration not stated) | inconclusive: 39.8 µM [inhibitor, partial curve, poor fit] | 
Cc1nnc(N2CCN(C(=O)Nc3ccccc3)CC2)c2nn(-c3ccc(Cl)cc3)c(C)c12 | inconclusive: 2.24 µM [inhibitor, full curve, poor fit] | 
Cc1nnc(SCC(=O)Nc2nccs2)n1C(C)C | inconclusive: 44.7 µM [inhibitor, single point] | 
CCCCc1c(C)c2ccc(OC)c(/C(C)=N/O)c2oc1=O | inconclusive: 44.7 µM [inhibitor, partial curve, poor fit] | 
O=C1CC(C(=O)Nc2ccc(F)cc2)n2nc(-c3ccc(Cl)cc3)cc2N1 (configuration not stated) | inconclusive: 39.8 µM [inhibitor, partial curve] | 
O=C(O)C(C(=O)/C=C/c1ccc(Cl)cc1)=C1SCCS1 | inconclusive: 3.16 µM [inhibitor, full curve, poor fit] | 
Clc1ccccc1C1Cn2cnc(-c3nc(-c4ccccn4)no3)c2CO1 (configuration not stated) | inactive | 
Cc1cc(NC(=O)NCC(c2cccs2)N2CCCC2)no1 (configuration not stated) | inconclusive: 39.8 µM [inhibitor, single point] | 

Grouped by structure, those above with two or more sulfur atoms
Structure (SMILES) | Potency | activity change, negative = inhibition
Cc1nnc(SCC(=O)Nc2nccs2)n1C(C)C | inconclusive: 44.7 µM [inhibitor, single point] | 
O=C(O)C(C(=O)/C=C/c1ccc(Cl)cc1)=C1SCCS1 | inconclusive: 3.16 µM [inhibitor, full curve, poor fit] | 

Later entries.

Structure (SMILES) | Potency | activity change, negative = inhibition
CC(C)(C)NC(=O)C(c1ccc(Cl)cc1)N(Cc1ccco1)C(=O)CCl (configuration not stated) | inconclusive: 25.1 µM [inhibitor, single point] | 
O=C(CN1CCOCC1)N1CCc2ccccc2C(c2ccccc2)C1 (configuration not stated) | inconclusive: 50.1 µM [inhibitor, partial curve, poor fit] | 
Cc1ccc(Cn2c(SCc3ccc(C(=O)N4CCCCC4)cc3)nc3ccncc32)cc1 | inactive | 
CC(C)CCN(C(=S)Nc1cccc(F)c1)C(C)c1cccs1 (configuration not stated) | inconclusive: 35.5 µM [inhibitor, partial curve] | 
O=C(Cc1cccnc1)N1CC(=O)N2[C@@H](CO)[C@H](c3ccc(Br)cc3)[C@@H]2C1 | inconclusive: 56.2 µM [inhibitor, partial curve, poor fit] | 
Cc1nc(Nc2cccc(F)c2)c2oc3ccccc3c2n1 | inconclusive: 20 µM [inhibitor, partial curve] | 
COc1cc(CSc2c(C(C)C)cnc3c2c(=O)n(C)c(=O)n3C)cc(OC)c1 | inconclusive: 50.1 µM [inhibitor, partial curve, poor fit] | 
Cc1cccc(C(=O)N2CCC[C@H]2c2nc(-c3ccccc3)no2)c1 | inconclusive: 70.8 µM [inhibitor, partial curve] | 
COc1ccccc1NC(=O)Cn1cnc2sc(C(=O)NCc3ccco3)c(C)c2c1=O | inactive | 
N#Cc1cccnc1-c1ccc(C(=O)O)cc1 | inconclusive: 39.8 µM [inhibitor, partial curve] | 
CC1(C)N=C(SCC(=O)Nc2ccc(Br)cc2)C(c2ccc(Br)cc2)=N1 | inconclusive: 44.7 µM [inhibitor, partial curve, poor fit] | 
Cc1[nH]c2ccccc2c1SCCNC(=O)c1ccc2ccccc2c1 | inconclusive: 44.7 µM [inhibitor, partial curve, poor fit] | 
COc1ccc(CNC(=O)C2CCCN(Cc3nc(-c4cccc(C)c4)oc3C)C2)cc1 (configuration not stated) | inactive | 
CC1(C(=O)NS(=O)(=O)Cc2ccccc2C(F)(F)F)CCN1C(=O)C/C=C/c1ccccc1 (configuration not stated) | inactive | 
CC(=O)c1ccccc1NC(=O)Cn1cnc2cc(Cl)ccc2c1=O | inconclusive: 79.4 µM [inhibitor, partial curve, poor fit] | 
CC(=O)Oc1cccc(/C=N\NC(=O)C(=O)N/N=C/c2cccc(OC(C)=O)c2)c1 | inactive | 
Cc1cccc(C)c1NC(=O)Cn1cnc2c1c(=O)n(C)c(=O)n2C | inconclusive: 5.62 µM [inhibitor, partial curve, poor fit] | 
O=C(CCn1ccc2cc(S(=O)(=O)N3CCCCC3)ccc21)NCC1CCCO1 (configuration not stated) | inconclusive: 89.1 µM [inhibitor, partial curve, poor fit] | 
O=C(N1CCN(c2ccccn2)CC1)N1c2ccccc2Sc2ccccc21 | inconclusive: 50.1 µM [inhibitor, partial curve, poor fit] | 
O=c1ccnc(Nc2ccc([N+](=O)[O-])cc2)[nH]1 | inconclusive: 22.4 µM [inhibitor, partial curve, poor fit] | 
Cc1ccc2c(CN(C)CCOc3ccccc3Cl)cc(=O)oc2c1 |  | inconclusive: -31.1% [inhibitor]
